## Results of single-concentration screens

Amino acid sequences for entries named in this document (tags omitted).
UniProt I6X8D2, whole entry: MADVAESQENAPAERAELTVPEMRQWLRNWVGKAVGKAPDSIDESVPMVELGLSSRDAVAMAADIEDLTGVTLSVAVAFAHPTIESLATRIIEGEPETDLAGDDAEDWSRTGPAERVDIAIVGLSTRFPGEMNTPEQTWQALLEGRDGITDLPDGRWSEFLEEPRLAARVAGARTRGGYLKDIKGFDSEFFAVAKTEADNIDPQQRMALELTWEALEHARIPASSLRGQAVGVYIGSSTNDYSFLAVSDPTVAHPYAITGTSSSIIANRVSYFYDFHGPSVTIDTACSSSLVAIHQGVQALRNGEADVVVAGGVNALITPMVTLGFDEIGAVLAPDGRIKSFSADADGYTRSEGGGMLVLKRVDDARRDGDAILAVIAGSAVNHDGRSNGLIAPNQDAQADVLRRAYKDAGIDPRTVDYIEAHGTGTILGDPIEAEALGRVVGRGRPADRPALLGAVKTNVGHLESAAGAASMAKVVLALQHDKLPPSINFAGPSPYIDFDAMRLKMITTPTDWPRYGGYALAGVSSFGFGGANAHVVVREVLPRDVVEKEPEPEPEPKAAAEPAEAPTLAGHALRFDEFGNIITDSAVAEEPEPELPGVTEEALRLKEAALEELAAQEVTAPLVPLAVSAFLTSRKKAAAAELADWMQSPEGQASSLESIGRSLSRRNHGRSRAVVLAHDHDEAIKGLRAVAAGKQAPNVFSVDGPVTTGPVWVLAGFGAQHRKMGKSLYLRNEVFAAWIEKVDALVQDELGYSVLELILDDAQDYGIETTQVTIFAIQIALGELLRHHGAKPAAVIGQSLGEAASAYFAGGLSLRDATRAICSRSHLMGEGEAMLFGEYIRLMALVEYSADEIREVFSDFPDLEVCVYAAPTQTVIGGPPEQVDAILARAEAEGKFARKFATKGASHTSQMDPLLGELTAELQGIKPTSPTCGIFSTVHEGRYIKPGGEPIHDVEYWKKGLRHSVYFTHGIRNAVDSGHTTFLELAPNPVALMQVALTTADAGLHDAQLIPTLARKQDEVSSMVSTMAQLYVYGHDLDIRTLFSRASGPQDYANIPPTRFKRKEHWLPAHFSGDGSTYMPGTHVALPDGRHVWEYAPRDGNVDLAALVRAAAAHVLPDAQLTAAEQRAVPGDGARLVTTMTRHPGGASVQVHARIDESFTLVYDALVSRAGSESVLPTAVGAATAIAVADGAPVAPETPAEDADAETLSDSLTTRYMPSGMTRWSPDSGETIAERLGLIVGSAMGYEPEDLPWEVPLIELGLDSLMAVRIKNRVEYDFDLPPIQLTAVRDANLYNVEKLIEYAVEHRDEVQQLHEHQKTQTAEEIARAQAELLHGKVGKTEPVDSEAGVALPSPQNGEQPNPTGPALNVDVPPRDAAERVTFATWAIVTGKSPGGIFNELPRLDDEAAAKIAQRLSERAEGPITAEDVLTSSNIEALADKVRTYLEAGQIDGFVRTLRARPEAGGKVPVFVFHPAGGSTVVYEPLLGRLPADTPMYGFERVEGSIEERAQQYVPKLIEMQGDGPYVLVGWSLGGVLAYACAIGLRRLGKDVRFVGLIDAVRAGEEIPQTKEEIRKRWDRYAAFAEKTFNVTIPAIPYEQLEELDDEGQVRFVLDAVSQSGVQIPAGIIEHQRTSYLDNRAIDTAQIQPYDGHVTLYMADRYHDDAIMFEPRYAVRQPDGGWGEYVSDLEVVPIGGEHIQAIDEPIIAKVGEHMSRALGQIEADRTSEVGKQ

Data taken from ChEMBL document CHEMBL3988442, “University of Dundee, Small-Polar-MMV Screening Library” (2021).

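Polyketide synthase Pks13, Mycobacterium tuberculosis (UniProt I6X8D2). Enzyme assay of the thioesterase domain of polyketide synthase 13; the read-out is not stated. Concentration: 30 µM. The record gives no direction; the compounds picked for IC50 retests had high values, so higher reads as stronger inhibition. About 67,000 compounds were tested under these conditions; 0.46% (about 300) showed 50% or more at least once.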

Results are given as percent effect.
The record does not define 0% and 100%; most values in the screen are far below 50% and negative numbers occur (in some assays of this library far below -100).
The compounds are a random part of those screened.

* CCCC(=O)N(C)Cc1nc(N2CCCC2)ncc1-c1ccncc1 | 19.03%
* CS(=O)(=O)NCCCN1CCCC1c1ccsc1 (stereo not drawn) | -5.803%
* c1ncc2c(n1)CN(c1ncnc3[nH]ccc13)CC2 | 11.93%
* CCN(Cc1ccc2c(c1)OCO2)Cc1nc2c(cnn2C)c(=O)[nH]1 | -4.212%
* CC(C)N1CCO[C@H]2CN(C(=O)Cc3cccs3)C[C@H]21 | -31.3%
* O=C(Cc1cccnc1)N1CCC(c2nnc(-c3ccccn3)o2)CC1 | -17.25%
* Cc1ccccc1N(CC(=O)NCCc1nnc2n1CCC2)S(C)(=O)=O | -33.18%
* CS(=O)(=O)N1CCC(Cc2cnc(Br)cn2)C1 (stereo not drawn) | -24.93%
* COCC(=O)N1CCN(C(=O)C2(c3ccc(C)c(OC)c3)CC2)CC1 | -19.24%
* O=C1OCCC1N1CCN(C(=O)Cc2ccccc2Cl)CC1 (stereo not drawn) | -3.44%
* CN1CCN(Cc2cn3c(n2)CN(Cc2ccc(F)cc2)CC3)CC1 | -3.125%
* CC1CCCCN1C(=O)c1ccn(COc2ccc(F)cc2)n1 (stereo not drawn) | 0.8308%
* Cc1nn(C)c(C)c1C1CCCN1C(=O)c1ccc(C(N)=O)cn1 (stereo not drawn) | -6.228%
* O=S(=O)(NCc1ccccc1)NCc1nc(-c2ccncc2)n[nH]1 | 8.431%
* Cc1cnc(CNC(=O)[C@@H]2CC[C@@H]3[C@@H](CCN3Cc3ccco3)O2)cn1 | -25.68%
* COc1ccccc1C(=O)NS(=O)(=O)c1cccc(C#N)c1 | -9.344%
* O=C(OCCNc1ncccn1)c1ccc(Br)s1 | -5.531%
* Cc1cc(C)nc(N2CCCC(Cn3cc(CN(C)C)nn3)C2)n1 (stereo not drawn) | -32.48%
* O=C(N[C@H]1CN(c2nc(CO)cs2)C[C@@H]1C1CC1)C1CCCCC1 | 4.166%
* CC(C)c1noc(CCC(=O)NCC(c2ccco2)N2CCCC2)n1 (stereo not drawn) | -11.25%
* CC(C)(C)N1CC(C(=O)NCc2nc(C3CCCCC3)no2)CC1=O (stereo not drawn) | -24.03%
* CN(C)c1cc(CNC(=O)c2cccnc2O)ccn1 | -14.47%
* CCOC[C@@H]1CC[C@H]2[C@H](CCN2S(=O)(=O)c2ccc(F)cc2)O1 | 4.219%
* Cc1cnn(CC2CCCN2C(=O)c2cn(C)c3ccccc23)c1 (stereo not drawn) | -24.9%
* CN(CC1CC1)C(=O)c1cc2c(c(S(N)(=O)=O)c1)CCC2 | 25.95%
* CN(C)C(=O)CN1CC[C@H]2[C@H]1CCN2c1ncccn1 | -7.909%
* CC(C)N(C)Cc1nnc2n1CCCN(c1cnccn1)C2 | 1.128%
* CCCSc1ncccc1C(=O)NCc1ccc(S(N)(=O)=O)cc1 | 0.9273%
* COc1ccc(CNC(=O)NCc2ccc(C)cc2)cn1 | -24.14%
* O=C(c1cc2ccccc2o1)N1CCN(Cn2cc(Cl)cn2)CC1 | 12.03%

For reference, 2 entries once more:

Compound	Percent Effect
O=C(N[C@H]1CN(c2nc(CO)cs2)C[C@@H]1C1CC1)C1CCCCC1	4.166
O=C(Cc1cccnc1)N1CCC(c2nnc(-c3ccccn3)o2)CC1	-17.25